13 molecules from paper doi:10.1101/526509 can be followed below.

The chains behind the UniProt entries cited, without tags or fusion partners. Residues count along the entry.
UniProt D3ZCV0: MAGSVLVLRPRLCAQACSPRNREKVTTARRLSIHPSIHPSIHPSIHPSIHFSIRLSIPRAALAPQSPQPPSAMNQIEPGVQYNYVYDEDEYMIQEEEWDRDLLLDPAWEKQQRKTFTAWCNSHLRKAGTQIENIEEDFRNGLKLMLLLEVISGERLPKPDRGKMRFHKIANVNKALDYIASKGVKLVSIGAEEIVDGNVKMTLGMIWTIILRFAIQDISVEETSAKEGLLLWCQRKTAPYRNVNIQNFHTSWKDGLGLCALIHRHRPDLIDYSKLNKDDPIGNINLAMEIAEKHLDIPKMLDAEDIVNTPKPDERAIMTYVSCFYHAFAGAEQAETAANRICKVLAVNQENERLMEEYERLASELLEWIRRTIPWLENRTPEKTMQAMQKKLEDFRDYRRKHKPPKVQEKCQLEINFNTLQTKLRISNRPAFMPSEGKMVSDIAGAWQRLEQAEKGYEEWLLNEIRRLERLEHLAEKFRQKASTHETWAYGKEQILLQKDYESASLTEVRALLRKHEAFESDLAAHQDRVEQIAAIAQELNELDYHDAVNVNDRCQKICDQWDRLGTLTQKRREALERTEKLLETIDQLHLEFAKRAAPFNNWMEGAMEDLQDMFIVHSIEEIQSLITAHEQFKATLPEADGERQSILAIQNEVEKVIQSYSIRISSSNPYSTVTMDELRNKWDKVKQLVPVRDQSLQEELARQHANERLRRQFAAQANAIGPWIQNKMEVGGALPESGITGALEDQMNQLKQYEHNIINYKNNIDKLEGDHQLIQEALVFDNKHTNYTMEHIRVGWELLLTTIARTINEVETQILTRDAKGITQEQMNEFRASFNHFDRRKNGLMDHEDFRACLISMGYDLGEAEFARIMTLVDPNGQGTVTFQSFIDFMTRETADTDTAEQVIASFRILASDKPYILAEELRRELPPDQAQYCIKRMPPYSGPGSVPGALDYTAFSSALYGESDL
UniProt P08413: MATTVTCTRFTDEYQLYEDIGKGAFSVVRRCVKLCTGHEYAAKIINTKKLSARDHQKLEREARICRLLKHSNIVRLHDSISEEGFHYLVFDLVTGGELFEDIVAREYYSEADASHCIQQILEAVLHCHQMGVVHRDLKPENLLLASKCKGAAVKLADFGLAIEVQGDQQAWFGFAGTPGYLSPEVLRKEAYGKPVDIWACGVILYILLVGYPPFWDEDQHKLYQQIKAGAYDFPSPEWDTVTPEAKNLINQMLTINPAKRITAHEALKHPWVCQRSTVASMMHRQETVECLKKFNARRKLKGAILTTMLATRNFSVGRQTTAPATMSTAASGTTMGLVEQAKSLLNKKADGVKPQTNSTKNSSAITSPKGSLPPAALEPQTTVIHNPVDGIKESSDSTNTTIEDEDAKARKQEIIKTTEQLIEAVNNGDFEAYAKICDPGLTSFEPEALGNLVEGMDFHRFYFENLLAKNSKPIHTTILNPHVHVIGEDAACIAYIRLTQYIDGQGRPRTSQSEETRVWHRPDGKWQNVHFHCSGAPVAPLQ
UniProt Q63357: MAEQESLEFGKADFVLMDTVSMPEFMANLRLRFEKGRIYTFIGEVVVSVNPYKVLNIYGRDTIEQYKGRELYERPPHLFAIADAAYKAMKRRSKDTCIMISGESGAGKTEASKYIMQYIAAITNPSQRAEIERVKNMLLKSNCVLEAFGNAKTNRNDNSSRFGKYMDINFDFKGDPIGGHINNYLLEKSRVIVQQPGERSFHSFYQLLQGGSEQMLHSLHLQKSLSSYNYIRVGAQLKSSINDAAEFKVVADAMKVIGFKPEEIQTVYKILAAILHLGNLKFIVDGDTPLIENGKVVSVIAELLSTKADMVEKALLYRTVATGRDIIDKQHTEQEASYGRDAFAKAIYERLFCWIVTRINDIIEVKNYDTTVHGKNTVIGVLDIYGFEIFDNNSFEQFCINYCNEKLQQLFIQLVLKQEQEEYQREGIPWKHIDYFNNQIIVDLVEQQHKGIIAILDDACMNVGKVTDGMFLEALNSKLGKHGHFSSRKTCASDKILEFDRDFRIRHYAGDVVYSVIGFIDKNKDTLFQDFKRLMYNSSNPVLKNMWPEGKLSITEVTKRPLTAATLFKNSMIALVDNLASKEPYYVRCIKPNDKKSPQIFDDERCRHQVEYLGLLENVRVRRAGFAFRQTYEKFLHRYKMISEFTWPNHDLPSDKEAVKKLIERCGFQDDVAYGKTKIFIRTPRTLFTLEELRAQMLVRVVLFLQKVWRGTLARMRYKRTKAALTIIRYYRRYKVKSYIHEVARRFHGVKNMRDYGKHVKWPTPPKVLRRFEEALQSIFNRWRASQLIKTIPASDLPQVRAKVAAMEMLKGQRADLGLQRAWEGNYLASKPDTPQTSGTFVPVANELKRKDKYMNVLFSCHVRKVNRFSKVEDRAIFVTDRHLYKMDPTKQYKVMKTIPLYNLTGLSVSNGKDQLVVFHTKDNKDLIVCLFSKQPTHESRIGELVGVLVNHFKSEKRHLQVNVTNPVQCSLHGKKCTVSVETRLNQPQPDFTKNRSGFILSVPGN
UniProt P68511: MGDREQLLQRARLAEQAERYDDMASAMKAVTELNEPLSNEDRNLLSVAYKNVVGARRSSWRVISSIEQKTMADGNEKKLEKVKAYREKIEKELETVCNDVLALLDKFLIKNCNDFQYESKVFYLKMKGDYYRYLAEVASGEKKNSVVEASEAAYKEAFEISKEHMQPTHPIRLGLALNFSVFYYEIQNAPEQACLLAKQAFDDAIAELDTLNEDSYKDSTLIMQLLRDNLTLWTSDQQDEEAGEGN
UniProt Q9QXQ0: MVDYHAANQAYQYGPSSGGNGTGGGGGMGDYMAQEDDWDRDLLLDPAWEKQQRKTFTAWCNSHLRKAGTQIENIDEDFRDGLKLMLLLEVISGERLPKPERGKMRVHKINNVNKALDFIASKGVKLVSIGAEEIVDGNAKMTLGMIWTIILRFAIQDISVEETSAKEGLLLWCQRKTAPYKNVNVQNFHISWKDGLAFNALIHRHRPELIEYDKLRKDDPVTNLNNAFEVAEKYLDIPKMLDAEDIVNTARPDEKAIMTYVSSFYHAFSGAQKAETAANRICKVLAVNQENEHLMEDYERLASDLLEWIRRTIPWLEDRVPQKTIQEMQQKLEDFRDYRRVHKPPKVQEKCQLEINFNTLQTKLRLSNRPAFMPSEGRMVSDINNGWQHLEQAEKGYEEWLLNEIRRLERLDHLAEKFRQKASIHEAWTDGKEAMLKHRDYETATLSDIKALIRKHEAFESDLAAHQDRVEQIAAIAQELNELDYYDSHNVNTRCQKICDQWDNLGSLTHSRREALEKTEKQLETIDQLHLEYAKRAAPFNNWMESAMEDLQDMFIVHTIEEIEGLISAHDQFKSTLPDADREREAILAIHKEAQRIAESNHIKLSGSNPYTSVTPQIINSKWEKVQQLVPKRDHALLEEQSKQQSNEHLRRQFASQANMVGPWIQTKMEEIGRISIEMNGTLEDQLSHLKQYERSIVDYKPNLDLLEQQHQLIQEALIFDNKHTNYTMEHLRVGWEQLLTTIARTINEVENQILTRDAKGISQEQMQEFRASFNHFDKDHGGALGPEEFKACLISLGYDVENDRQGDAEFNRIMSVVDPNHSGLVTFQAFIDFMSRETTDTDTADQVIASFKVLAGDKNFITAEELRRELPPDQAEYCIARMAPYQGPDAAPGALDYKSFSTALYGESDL
UniProt O35412: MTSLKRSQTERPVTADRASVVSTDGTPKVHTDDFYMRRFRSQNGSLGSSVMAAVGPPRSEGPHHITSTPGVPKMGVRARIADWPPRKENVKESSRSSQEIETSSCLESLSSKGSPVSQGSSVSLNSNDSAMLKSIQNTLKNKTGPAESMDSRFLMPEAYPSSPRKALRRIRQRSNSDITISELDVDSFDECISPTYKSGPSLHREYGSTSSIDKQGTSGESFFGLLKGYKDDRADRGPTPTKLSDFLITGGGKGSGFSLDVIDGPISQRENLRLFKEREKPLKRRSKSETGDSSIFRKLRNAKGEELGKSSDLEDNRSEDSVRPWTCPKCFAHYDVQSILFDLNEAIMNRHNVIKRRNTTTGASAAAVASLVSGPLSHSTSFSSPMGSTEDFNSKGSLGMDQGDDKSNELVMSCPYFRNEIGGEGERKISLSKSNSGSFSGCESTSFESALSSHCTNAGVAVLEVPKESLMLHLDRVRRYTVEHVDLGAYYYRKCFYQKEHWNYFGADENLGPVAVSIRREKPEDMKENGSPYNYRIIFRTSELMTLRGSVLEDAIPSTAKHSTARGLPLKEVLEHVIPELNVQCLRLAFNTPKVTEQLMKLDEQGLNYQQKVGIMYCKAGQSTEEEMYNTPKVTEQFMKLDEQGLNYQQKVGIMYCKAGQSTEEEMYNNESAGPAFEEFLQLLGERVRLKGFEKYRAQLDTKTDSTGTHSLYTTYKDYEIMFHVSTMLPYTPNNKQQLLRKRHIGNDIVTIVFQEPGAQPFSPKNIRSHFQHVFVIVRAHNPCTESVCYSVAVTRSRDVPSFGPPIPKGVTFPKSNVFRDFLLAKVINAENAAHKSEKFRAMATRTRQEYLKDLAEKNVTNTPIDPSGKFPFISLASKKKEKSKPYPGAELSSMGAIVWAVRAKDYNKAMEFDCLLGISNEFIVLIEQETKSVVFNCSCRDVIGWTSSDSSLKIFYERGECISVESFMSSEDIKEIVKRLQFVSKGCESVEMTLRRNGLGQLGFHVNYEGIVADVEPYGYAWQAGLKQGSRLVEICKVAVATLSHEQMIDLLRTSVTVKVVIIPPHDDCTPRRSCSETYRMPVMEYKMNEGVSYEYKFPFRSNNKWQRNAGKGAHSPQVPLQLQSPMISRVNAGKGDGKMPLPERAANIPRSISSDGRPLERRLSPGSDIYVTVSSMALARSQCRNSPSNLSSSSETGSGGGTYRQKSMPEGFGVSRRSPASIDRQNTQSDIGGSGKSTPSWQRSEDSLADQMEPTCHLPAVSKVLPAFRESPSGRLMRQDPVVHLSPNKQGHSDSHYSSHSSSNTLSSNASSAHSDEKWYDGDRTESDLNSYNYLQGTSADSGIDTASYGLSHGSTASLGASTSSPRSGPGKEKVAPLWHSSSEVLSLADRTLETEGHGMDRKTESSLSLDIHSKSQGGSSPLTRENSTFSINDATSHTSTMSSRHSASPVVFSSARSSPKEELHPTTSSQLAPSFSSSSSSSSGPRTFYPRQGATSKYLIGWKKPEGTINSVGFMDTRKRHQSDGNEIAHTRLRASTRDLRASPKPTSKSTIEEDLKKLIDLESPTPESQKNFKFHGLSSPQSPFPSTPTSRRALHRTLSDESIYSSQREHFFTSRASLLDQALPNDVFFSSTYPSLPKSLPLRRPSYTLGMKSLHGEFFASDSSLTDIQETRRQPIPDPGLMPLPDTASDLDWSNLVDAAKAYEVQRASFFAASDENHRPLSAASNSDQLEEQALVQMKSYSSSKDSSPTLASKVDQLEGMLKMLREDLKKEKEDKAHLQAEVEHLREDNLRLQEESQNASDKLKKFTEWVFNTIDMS
UniProt Q68FP1, residues 26-780: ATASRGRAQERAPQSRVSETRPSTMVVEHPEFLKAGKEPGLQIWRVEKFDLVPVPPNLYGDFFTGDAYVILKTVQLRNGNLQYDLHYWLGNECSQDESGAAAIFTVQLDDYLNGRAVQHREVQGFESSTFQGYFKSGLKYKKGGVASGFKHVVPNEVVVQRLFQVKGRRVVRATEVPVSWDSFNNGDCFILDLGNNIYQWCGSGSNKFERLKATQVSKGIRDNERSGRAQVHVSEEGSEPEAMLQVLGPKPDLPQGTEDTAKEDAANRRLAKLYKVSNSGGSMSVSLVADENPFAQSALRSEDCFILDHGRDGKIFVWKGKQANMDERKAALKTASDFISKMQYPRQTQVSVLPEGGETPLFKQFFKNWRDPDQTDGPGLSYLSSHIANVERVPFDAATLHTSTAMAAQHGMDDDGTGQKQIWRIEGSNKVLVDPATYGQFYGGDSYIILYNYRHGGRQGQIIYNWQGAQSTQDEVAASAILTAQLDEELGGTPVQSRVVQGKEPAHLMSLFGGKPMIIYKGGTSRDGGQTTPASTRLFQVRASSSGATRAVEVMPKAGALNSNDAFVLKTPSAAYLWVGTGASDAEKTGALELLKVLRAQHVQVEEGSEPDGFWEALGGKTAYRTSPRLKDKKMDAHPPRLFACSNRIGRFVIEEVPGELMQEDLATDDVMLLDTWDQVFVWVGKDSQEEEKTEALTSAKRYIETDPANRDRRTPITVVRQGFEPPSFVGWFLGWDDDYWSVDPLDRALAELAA

Where two headings read alike, the source gives them in different places. No constants are given. Whether binding was seen depends on the method and setting. In cells and extracts the contact can be indirect. A yes stands for co-enrichment or nearness to the bait. Other partners may have been found. Where a sequence is shown, tags or fusion partners need not be part of it.

Assay [1] deals with T1, bio-GFP-synaptopodin (mouse) (UniProt Q8CC35).
T1 sequence (chain, biotin (biotinylated; HA-BirA co-expressed)): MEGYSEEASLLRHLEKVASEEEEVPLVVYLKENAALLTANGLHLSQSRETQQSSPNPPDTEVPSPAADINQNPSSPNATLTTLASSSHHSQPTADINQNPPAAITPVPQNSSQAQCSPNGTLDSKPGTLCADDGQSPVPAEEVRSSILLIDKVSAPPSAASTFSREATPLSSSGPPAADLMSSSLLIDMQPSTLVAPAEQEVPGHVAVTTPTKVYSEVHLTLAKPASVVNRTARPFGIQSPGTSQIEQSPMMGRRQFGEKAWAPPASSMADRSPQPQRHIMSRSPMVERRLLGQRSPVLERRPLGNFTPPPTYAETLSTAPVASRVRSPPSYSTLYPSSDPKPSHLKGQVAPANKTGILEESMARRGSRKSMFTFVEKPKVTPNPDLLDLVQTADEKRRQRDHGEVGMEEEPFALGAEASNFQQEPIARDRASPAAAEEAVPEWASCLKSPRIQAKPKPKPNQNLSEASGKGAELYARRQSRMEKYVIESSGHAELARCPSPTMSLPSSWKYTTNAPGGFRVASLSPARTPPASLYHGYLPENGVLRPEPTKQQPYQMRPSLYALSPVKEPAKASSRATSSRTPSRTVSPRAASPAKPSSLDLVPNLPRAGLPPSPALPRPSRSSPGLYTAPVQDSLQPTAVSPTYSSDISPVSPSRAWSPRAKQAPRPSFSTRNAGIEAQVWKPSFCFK
Nature of the assay: affinity purification with mass spectrometry.

The target in assay [2] is T1, bio-GFP-synaptopodin (mouse). Description: affinity purification with mass spectrometry. This is another data set of the same source.

Consider “tropomodulin (Tmod3) (rat (endogenous in rat brain lysate))”, for which, in assay [1], the binding entry is listed as “binds”.

In the case of “actinin (Actn2) (from UniProt D3ZCV0 1-967)”, the binding entry in assay [1] is “binds”.

Turning to “CamKIIβ (from UniProt P08413 1-542) (enzyme)”, the binding result in assay [1] is listed as “binds”.

As to “coronin (Coro2a) (rat (endogenous in rat brain lysate))”, the binding result in assay [1] is “binds”.

myosin Vb (from UniProt P70569 1-1846): in assay [1], the binding result is reported as “binds”.

myosin Id (from UniProt Q63357 1-1006): the binding result in assay [1] is recorded as “binds”.

Consider myosin Va (from UniProt Q9QYF3 1-1828), for which, in assay [1], the binding entry is reported as “binds”.

As to 14-3-3 eta (from UniProt P68511 1-246), the binding entry in assay [1] was “binds”.

As to “actinin (Actn4) (from UniProt Q9QXQ0 1-911)”, the binding entry in assay [1] is reported as “binds”.

On to Sipa1l1 (from UniProt O35412 1-1822), for which the binding entry in assay [1] is on record as “binds”.

On to “gelsolin (Gsn) (from UniProt Q68FP1 26-780)”, for which the binding result in assay [1] was “binds”.

B1: coronin (Coro2b) (protein, UniProt F1LMV9 1-480)
chain: MTVTKMSWRPQYRSSKFRNVYGKVANREHCFDGIPITKNVHDNHFCAVNARFLAIVTESAGGGSFLVIPLEQTGRIEPNYPKVCGHQGNVLDIKWNPFIDNIIASCSEDTSVRIWEIPEGGLKRNMTEALLELHGHSRRVGLVEWHPTTNNILFSAGYDYKVLIWNLDIGEPVKMIDCHTDVILCMSFNTDGSLLTTTCKDKKLRVIEPRSGRVLQEANCKNHRVNRVVFLGNMKRLLTTGVSRWNTRQIALWDQEDLSMPMIEEEIDGLSGLLFPFYDADTHMLYLAGKGDGNIRYYEISTEKPYLSYLMEFRSPAPQKGLGVMPKHGLDVSACEVFRFYKLVTLKGLIEPISMIVPRRSDSYQEDIYPMTPGTEPALTPDEWLGGVNRDPVLMSLKEGYKKSSKVVFKAPIREKKSVVVNGIDLLENVPPRTENELLRMFFRQQDEIRRLKEELAQKDIRLRQLQLELKNLRNNPKNC
Regarding B1, in assay [2], the binding entry is listed as “binds”.

B2: tropomodulin (Tmod2) (protein, UniProt P70566 1-351)
chain: MALPFQKGLEKYKNIDEDELLGKLSEEELKQLENVLDDLDPESATLPAGFRQKDQTQKAATGPFDREHLLMYLEKEALEQKDREDFVPFTGEKKGRVFIPKEKPVETRKEEKVTLDPELEEALASASDTELYDLAAVLGVHNLLNNPKFDEETTNGQGRKGPVRNVVKGEKAKPVFEEPPNPTNVEASLQQMKANDPSLQEVNLNNIKNIPIPTLKEFAKALETNTHVRKFSLAATRSNDPVALAFAEMLKVNKTLKSLNVESNFITGAGILALVEALRENDTLTEIKIDNQRQQLGTAVEMEIAQMLEENSRILKFGYQFTKQGPRTRVAAAITKNNDLVRKKRVEGDRR
In the case of B2, in assay [2], the binding entry was “binds”.
